{
  "source": "patent EP4570793A1",
  "about": "“5-HT2A RECEPTOR INVERSE AGONIST, AND PREPARATION METHOD THEREFOR AND USE THEREOF” (Luye Innomind Pharma Shijiazhuang Co., Ltd., priority 2022, dated 2024)",
  "test_system": "SD rats",
  "experiment": "In-vivo pharmacodynamics: DOI-induced head twitch model",
  "conditions": "1.0-1.5 h after administration, DOI 2.5 mg/kg i.p.",
  "note": "For part of its entries the source gives two or more results. The list is limited to them. There may be further records. The records of an entry do not match, cause unknown; dose, time, organism, isomer or construct need not be as stated for each record.",
  "data": [
    {"compound": "CN1CCC(N(Cc2ccc(F)cc2)C(=O)NCc2ccc(OCC(F)(F)F)nc2)C(F)C1", "note": "(single isomer, unassigned) [Compound 68A]", "values": [
      {"measurement": "Number of head twitches", "setting": "0.66 mg/kg intragastric", "value": "extremely significantly reduced and 3.7 ··"},
      {"measurement": "Number of head twitches", "setting": "2.0 mg/kg intragastric", "value": "extremely significantly reduced and 0.9 ··"}
    ]}
  ]
}
